Test results taken from PubChem BioAssay AID1508600 (Functional Genomics Laboratory (NCATS/FGL), 2020).
Hit rate of the full screen: of about 53,000 sequences, about 3,700 (7%) were called active.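 Rule for the calls: active = gene knockdowns whose robust z-score for IL-1 alpha signal is at least 2 or at most -2, so actives lie on both sides; inactive = the rest.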 The list shows a part of the results.

Experiment: Components of the Cytosolic LPS Sensing Pathway: Gene Identification via Genome-wide siRNA Screen;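 note: robust z of the log signal after scaling to non-targeting control siRNA wells of the plate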
Details: RAW264.7 macrophages, IL-1a HTRF, actives lie on both sides, screened at 100 nM (by protocol), cells primed 5 h with Pam3CSK4 first
In short: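 IL-1a HTRF of supernatants after 24 hour LipidA transfection of Pam3CSK4-primed (5 hours) RAW264.7 cells, 48h post-siRNA transfection (100 nM). Scores: percent of plate negative-control median, then log-based robust z-score.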

Question: With AUAUAACAGUGCCCAGCCUTT against Olfr885 as the sequence, how does the z-score read?
Answer: inactive: 1.25

Question: Which z-score does the source give for GGUCUUUCAUCUGACCAGCTT against Slc10a1 here?
Answer: inactive: 0.219

Question: Which z-score does the source give for GGAGAAAGGUUUUGUUAUGTT against Gtf2h2 here?
Answer: inactive: 1.5

Question: Which z-score does the source give for GGCAUAAAAAAGUAAAUGGTT against Slc41a2 here?
Answer: inactive: 1.24

Question: Which z-score does the source give for GGAGAGAAGAAAAAGAAGGTT against Rrbp1 here?
Answer: inactive: 0.647

Question: For CCUGGAAAUAUCAAAUUUCTT against Olfr850, which z-score is on record?
Answer: inactive: -0.414

Question: Which z-score does the source give for GCGAAAAUAUUUUCCGGGCTT against Itga2 here?
Answer: inactive: 0.99

Question: With GCCAAACGAACAACAAAACTT against Chrm3 as the sequence, how does the z-score read?
Answer: inactive: -0.166

Question: With GGCUGAUCCAUUUUCACAATT against Adam6a as the sequence, how does the z-score read?
Answer: active: -2.77

Question: For GCAGUACACUUCCAUAUGGTT against Prlr, which z-score is on record?
Answer: inactive: 0.334

Question: With GGAUGGUGCUGUAAAGAAATT against Utp3 as the sequence, how does the z-score read?
Answer: inactive: -0.013

Question: For “GCGUGCAGUGUCGUGAAAGTT against D430018E03Rik”, which z-score is on record?
Answer: inactive: -0.639

Question: With “GGUACAUUAACCCUAAAGATT against 4930550C14Rik” as the sequence, how does the z-score read?
Answer: inactive: 1.04

Question: With GGACAAGGAAAAGUCUUUATT against Cep97 as the sequence, how does the z-score read?
Answer: inactive: 0.894

Question: With GCGACUGUACAACGAAUUGTT against Clp1 as the sequence, how does the z-score read?
Answer: active: 3.34

Question: With GGGAAUAGCAAAUAAAGCATT against Lztr1 as the sequence, how does the z-score read?
Answer: inactive: -0.674

Question: Which z-score does the source give for GGUACUCACCGGAUACCAATT against Olfr512 here?
Answer: inactive: 0.214

Question: With GCUUUAUAAAGUGGGUAGATT against Bub1 as the sequence, how does the z-score read?
Answer: inactive: 0.414

Question: Which z-score does the source give for CCAAGCUUAUUGACAAUGATT against Spta1 here?
Answer: inactive: 0.213

Question: With GGAGGAACCCUCAUUUUAGTT against Prxl2c as the sequence, how does the z-score read?
Answer: inactive: -0.897

Question: For GCCACAUCGUAGACAAGUATT against Zfp41, which z-score is on record?
Answer: active: -2.71

Question: With GCUACAGUUUGUGGGUGACTT against Zmynd15 as the sequence, how does the z-score read?
Answer: inactive: 0.11

Question: With GGGUUUGUGGGAUACAAUCTT against Smarce1 as the sequence, how does the z-score read?
Answer: active: 2.97

Question: For GGAAAUGCCAUAGUCCUAUTT against Mrgprb5, which z-score is on record?
Answer: active: -2.54

Question: Which z-score does the source give for CCCGGGAUACCACUUAUGUTT against Aen here?
Answer: inactive: 0.0179

Question: For CCUUUCUUCCUAGUUCUUCTT against Olfr38, which z-score is on record?
Answer: inactive: -0.398

Question: Which z-score does the source give for GGCACGACUACAUAUUUAATT against Wdfy3 here?
Answer: inactive: 1.12

Question: For GCAUUUGAAAUAUUCGCUATT against Hyal5, which z-score is on record?
Answer: inactive: 0.293

Question: For GCAGCAUCAGCAUUUAUAATT against Nmur2, which z-score is on record?
Answer: inactive: -0.166

Question: Which z-score does the source give for GGCCCUGAGAAGAAAACUATT against Syngr3 here?
Answer: inactive: -0.118

Question: Which z-score does the source give for CCCUGGCGAAUCAGAUUGCTT against Sohlh1 here?
Answer: inactive: 1.02

Question: With GCCAUUGUACCAUGAAGAGTT against Trappc12 as the sequence, how does the z-score read?
Answer: inactive: -1.02

Question: Which z-score does the source give for GCAACACCAGAGUAUGUUATT against Cldn34b3 here?
Answer: inactive: 0.794

Question: With CCCUACUAUUGACGAAAACTT against Hoxc12 as the sequence, how does the z-score read?
Answer: inactive: 0.345

Question: With GGCAUGUCUAAUGAACUCATT against Acly as the sequence, how does the z-score read?
Answer: inactive: -0.502

Question: For GGCAUCCAUUCAAGAGAAUTT against Smpd4, which z-score is on record?
Answer: inactive: -0.99

Question: For GGACUCACAGGUUGAAAUATT against Tex29, which z-score is on record?
Answer: inactive: -0.797

Question: Which z-score does the source give for “GGGUUCAUAUGUUUUGGAUTT against C130050O18Rik” here?
Answer: inactive: 1.38

Question: Which z-score does the source give for GGCUUUGCAGGAAUACAUGTT against Ccdc61 here?
Answer: inactive: -1.12

Question: With CCGUUAUCUCUUGAAACAUTT against Kitl as the sequence, how does the z-score read?
Answer: inactive: -0.304

Question: For GGUCUUGUUCUCAUCAACATT against Ndrg2, which z-score is on record?
Answer: inactive: -0.0721

Question: For GGAAGUGCAAGUGACAAAGTT against Adat1, which z-score is on record?
Answer: inactive: 0.927

Question: For GGCAUACCGAAAGUUAGCCTT against Dnaja2, which z-score is on record?
Answer: inactive: -0.724

Question: Which z-score does the source give for GGCAGGUGACUCCAAAUGUTT against Hdc here?
Answer: inactive: -0.862

Question: For GGAAUGAGCAUGUUAAAUGTT against Maoa, which z-score is on record?
Answer: inactive: -0.451

Question: For GCUAGAGUGUCAUGACUUUTT against Zbtb44, which z-score is on record?
Answer: inactive: 0.897

Question: Which z-score does the source give for GGACCUCAAAAGCUAUUUUTT against Slco1a6 here?
Answer: inactive: -1.62

Question: With “GCGAUAAGCAGAAUGGCAGTT against 8030462N17Rik” as the sequence, how does the z-score read?
Answer: inactive: -0.9

Question: With GGAGGAGUAUGAAGAGCUGTT against Poc5 as the sequence, how does the z-score read?
Answer: inactive: -0.0911

Question: For CCGAAACUGUUUGACCUCATT against Rasal1, which z-score is on record?
Answer: inactive: -1.56

Question: With CCAGGAUAACCGUAUUAAUTT against Gm2a as the sequence, how does the z-score read?
Answer: inactive: -1.02

Question: With GGAGGUAUUCACAAAGAGATT against Parp8 as the sequence, how does the z-score read?
Answer: inactive: -0.248

Question: For CCUUCCAUGUCUAAAAUGGTT against Aldh4a1, which z-score is on record?
Answer: inactive: -0.12
